In patent US20090325959A1 (priority 2008, published 2009):
Where two headings read alike, the source gives them in different places. The match of structure and compound is tentative.

Amino acid sequences for entries named in this document (tags omitted). Residues count along the entry.
UniProt Q13464, 17-535 limits assumed: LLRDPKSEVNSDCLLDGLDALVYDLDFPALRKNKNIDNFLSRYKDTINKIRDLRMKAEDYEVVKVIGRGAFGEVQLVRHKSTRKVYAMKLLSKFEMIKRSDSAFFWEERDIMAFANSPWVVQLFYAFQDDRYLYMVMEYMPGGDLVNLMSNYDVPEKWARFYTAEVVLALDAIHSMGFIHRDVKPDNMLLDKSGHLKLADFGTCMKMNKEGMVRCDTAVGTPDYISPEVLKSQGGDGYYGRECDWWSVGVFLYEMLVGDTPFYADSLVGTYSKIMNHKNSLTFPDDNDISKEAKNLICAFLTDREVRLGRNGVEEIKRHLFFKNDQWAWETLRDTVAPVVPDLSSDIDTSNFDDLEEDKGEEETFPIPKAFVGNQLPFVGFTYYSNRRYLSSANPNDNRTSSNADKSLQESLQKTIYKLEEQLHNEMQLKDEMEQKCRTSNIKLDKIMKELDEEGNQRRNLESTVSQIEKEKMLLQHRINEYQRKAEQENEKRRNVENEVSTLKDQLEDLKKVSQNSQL
UniProt Q9Y243, whole entry: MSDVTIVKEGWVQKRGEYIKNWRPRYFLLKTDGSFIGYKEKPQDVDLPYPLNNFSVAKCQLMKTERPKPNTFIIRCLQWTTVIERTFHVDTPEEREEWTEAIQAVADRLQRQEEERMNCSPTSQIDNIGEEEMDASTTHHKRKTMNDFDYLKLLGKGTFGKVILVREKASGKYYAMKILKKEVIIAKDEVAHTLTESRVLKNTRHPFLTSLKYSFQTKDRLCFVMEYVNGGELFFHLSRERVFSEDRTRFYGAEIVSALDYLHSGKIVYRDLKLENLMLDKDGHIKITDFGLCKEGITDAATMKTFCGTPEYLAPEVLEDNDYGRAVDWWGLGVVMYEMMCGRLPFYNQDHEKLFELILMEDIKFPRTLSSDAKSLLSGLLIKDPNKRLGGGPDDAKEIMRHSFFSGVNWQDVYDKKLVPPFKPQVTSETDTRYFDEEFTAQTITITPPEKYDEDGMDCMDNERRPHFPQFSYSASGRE
UniProt P23443, 1-421 T412E limits assumed: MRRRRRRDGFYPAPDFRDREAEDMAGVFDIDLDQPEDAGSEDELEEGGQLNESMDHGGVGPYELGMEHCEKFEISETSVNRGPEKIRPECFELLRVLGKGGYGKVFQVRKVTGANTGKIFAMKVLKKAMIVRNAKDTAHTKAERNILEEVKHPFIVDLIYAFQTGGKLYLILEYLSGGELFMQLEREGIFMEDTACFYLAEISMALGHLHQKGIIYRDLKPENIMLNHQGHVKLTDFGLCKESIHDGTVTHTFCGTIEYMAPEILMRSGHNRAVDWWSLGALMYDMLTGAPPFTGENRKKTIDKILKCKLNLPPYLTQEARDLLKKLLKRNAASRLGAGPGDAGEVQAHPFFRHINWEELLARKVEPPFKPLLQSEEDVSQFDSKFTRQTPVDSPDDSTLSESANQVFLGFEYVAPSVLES

Tests used:
ROCK1 = ROCK1 (Homo sapiens, UniProt Q13464); assay: Rho kinase inhibition assay (IMAP fluorescence polarization), ROCK1; type: biochemical;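 also: kinase reaction run 60 min at room temperature, then phosphorylated substrate captured on IMAP beads for 30 min, with fluorescence polarization read in mP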
Akt3 human enzyme = Akt3 human enzyme (Homo sapiens, UniProt Q9Y243); assay: Akt3 inhibition assay (IMAP FP); type: biochemical;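 also: kinase reaction run 60 min at room temperature after 30 µM ATP start, phosphorylated substrate captured on IMAP beads and read as fluorescence polarization (mP)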
[1] = Compound plasma concentrations in unsensitized mice at 15 min post administration; type: in vivo, mouse; conditions: mean compound plasma concentration in mice at 15 minutes post oral administration
p70S6K human enzyme = p70S6K human enzyme (Homo sapiens, UniProt P23443, T412E); assay: p70S6K inhibition assay (IMAP FP); type: biochemical;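 also: kinase reaction run at room temperature, phosphorylated substrate captured on IMAP beads and read as fluorescence polarization in mP, IC50 then converted to Ki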

Structure (SMILES): Cc1ccc(CN2CCC[C@@H](Nc3ccc4[nH]ncc4c3)C2)cc1NS(C)(=O)=O
- Ki (ROCK1; read-out: ROCK1 Ki, Avg, 10 μM ATP): 0.0095 µM
- Ki (ROCK1; read-out: ROCK1 Ki, average Ki): 0.0095 µM
- Ki (Akt3 human enzyme; read-out: Akt3 Ki, Avg, 30 μM ATP, Ki=IC50/(1+([ATP Challenge]/EC50 ATP))): 0.315 µM
- Ki (Akt3 human enzyme; read-out: Akt3 Ki, average Ki): 0.315 µM
- Mouse Oral PK [1]: 567 nM
- Ki (p70S6K human enzyme; read-out: p70S6K Ki, Avg, 30 μM ATP, Ki=IC50/(1+([ATP Challenge]/EC50 ATP))): 0.531 µM
- Ki (p70S6K human enzyme; read-out: p70S6K Ki, average Ki): 0.531 µM
